This is an account of results in paper doi:10.1101/2025.09.24.678297.

Substitutions are numbered along the chain they refer to. In names and notes the source's numbering stands. Results are given in words; binding and its absence hold for the method and conditions named. Some binding calls cover weakened binding; strength is not graded here. Sequences can lack the tags named with a protein.

For experiment [1], the target named is T1, Pil1-Ste4-mCherry (WT) (S. pombe) (UniProt P36622).
T1 sequence: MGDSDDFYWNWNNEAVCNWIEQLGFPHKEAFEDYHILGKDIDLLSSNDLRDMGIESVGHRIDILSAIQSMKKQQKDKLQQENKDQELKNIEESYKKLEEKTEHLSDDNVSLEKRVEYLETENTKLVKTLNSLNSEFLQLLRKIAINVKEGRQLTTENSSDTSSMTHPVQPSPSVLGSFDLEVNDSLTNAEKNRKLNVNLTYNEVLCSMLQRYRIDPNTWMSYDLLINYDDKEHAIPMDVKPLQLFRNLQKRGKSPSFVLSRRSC
Description: Pil1 co-recruitment assay.

In experiment [2] the target is T2, Ste4, two-hybrid fusion (S. pombe) (UniProt P36622).
T2 sequence: T1 sequence
Description: two-hybrid.

B1: Byr2-GFP (WT) (enzyme, UniProt P28829 1-659)
chain: MEYYTSKEVAEWLKSIGLEKYIEQFSQNNIEGRHLNHLTLPLLKDLGIENTAKGKQFLKQRDYLREFPRPCILRFIACNGQTRAVQSRGDYQKTLAIALKKFSLEDASKFIVCVSQSSRIKLITEEEFKQICFNSSSPERDRLIIVPKEKPCPSFEDLRRSWEIELAQPAALSSQSSLSPKLSSVLPTSTQKRSVRSNNAKPFESYQRPPSELINSRISDFFPDHQPKLLEKTISNSLRRNLSIRTSQGHNLGNFGQEILPRSSRRARPSELVCPLSSLRISVAEDVNRLPRIDRGFDPPLTVSSTQRISRPPSLQKSITMVGVEPLYQSNGNEKSSKYNVFSESAHGNHQVLSFSPGSSPSFIEQPSPISPTSTTSEDTNTLEEDTDDQSIKWIRGALIGSGSFGQVYLGMNASSGELMAVKQVILDSVSESKDRHAKLLDALAGEIALLQELSHEHIVQYLGSNLNSDHLNIFLEYVPGGSVAGLLTMYGSFEETLVKNFIKQTLKGLEYLHSRGIVHRDIKGANILVDNKGKIKISDFGISKKLELNSTSTKTGGARPSFQGSSFWMAPEVVKQTMHTEKTDIWSLGCLVIEMLTSKHPYPNCDQMQAIFRIGENILPEFPSNISSSAIDFLEKTFAIDCNLRPTASELLSHPFVS
In the case of B1, in experiment [1], the binding entry was “binds”.

B2: Byr2^N28I, two-hybrid fusion (enzyme, UniProt P28829 1-659)
chain: B1 chain with N28I
Turning to B2, in experiment [2], the binding result was “no binding”.

B3: Byr2^N28I-GFP (enzyme, UniProt P28829 1-659)
chain: B1 chain with N28I
Regarding B3, the binding result in experiment [1] is “no binding”.

B4: Byr2, two-hybrid fusion (enzyme, UniProt P28829 1-659)
chain: B1 chain
As for B4, in experiment [2], the binding result is recorded as “binds”.
